Test results: PubChem BioAssay AID588497 (NMMLSC, 2011)
The campaign covered roughly 360,000 compounds. About 780 (0.22%) were called active. The inconclusive results got no clear call from the source; some entries with a clear call stand among them for comparison. No stated cut-off is given here; in the data, active means inhibition above about 35% (passing the limit was not always enough); inconclusive means no clear call, values can overlap the other calls.

Each compound was assayed on Botulinum neurotoxin type F light chain protease (Clostridium botulinum) (assay: BoNT/F light chain protease inhibitors, primary screen, biochemical, flow cytometry, MLPCN library (AID 588497; further: plate controls were buffer without enzyme for full effect and enzyme alone for no effect)). Conditions: Multiplex microsphere protease cleavage assay, at 10 µM, stronger effect = higher value.

Structure (SMILES)	inhibition
CC(=O)Nc1ccc(NC(=O)N2CCCCC2)cc1	inactive: -2.5%
O=C(Nc1nnc(C(F)(F)F)s1)c1c(F)cccc1F	inconclusive: -20.5%
COc1cccc(NC(=O)Cc2nnc(SCC(=O)c3ccccc3)n2C)c1	inactive: 0.8%
CC(C)c1cccc(C(C)C)c1NC(=S)Nc1cccc(Cl)c1	inconclusive: -5.5%
COc1ccc(NC(=O)CN2CCN(CC(=O)Nc3ccccc3Cl)CC2)cc1Cl	inactive: -12.8%
O=C(Cn1c(=O)c2cccn2c2ccccc21)Nc1ccc(F)cc1F	inconclusive: 1.5%
O=C(CSc1nnc(-c2cccnc2)n1-c1ccccc1)Nc1ccccn1	inconclusive: 16.6%
O=C(NNC(=O)C12CC3CC(CC(C3)C1)C2)c1ccccn1	inconclusive: 34.4%
C=CCOc1ccc(C(c2c(C(=O)O)[nH]c3ccccc23)c2c(C(=O)O)[nH]c3ccccc23)cc1	inactive: 13.1%
CN(C(=O)c1ccc(Oc2ccc([N+](=O)[O-])cc2)cc1)C1CCCCC1	inconclusive: 46.5%
O=[N+]([O-])c1cccc(NN=Nc2ccccc2)c1	inactive: -8.2%
Cn1c(N2CCNCC2)nc2ccccc21	inactive: -0.1%
CCc1nnc(NC(=O)c2cc(S(=O)(=O)N(C)c3ccc(OC)cc3)ccc2Cl)s1	inactive: -1.7%
CCOC(=O)c1ccc(N2C(=O)CC(Sc3ncccn3)C2=O)cc1 (configuration not stated)	inconclusive: -9.8%
CCN(C(=O)COC(=O)c1ccc2ccccc2n1)c1c(N)n(Cc2ccccc2)c(=O)[nH]c1=O	inactive: -4.9%
Cc1ccc(-c2nn[nH]n2)cc1Cl	inconclusive: -41.9%
N#Cc1ccc(NC(=O)COC(=O)c2cccc(S(=O)(=O)N3CCCC3)c2)cc1	inactive: 1.4%
CCN(CC)CC(=O)Nc1nc(-c2ccc(Cl)cc2)cs1	inactive: 0%
Cc1cc(C)nc(SCCS(=O)(=O)Cc2ccc(Cl)cc2)n1	inactive: 3.8%
O=C(CN1CCN(Cc2ccccc2)CC1)N/N=C/c1cccnc1	inconclusive: 118%
CN(C(=O)c1cccc(NC(=O)Cc2cccc(NC(=O)C3CCCN(C(=O)C4CCC4)C3)c2)c1)C1CCC1 (configuration not stated)	inactive: 3.2%
O=c1nccc(Nc2ccccc2)[nH]1	inconclusive: -8.6%
CC/C(=N/Nc1ccc(Cl)cc1)c1cnnc(SC)n1	inactive: -4.6%

4 entries from above in another layout.
Structure (SMILES),inhibition
O=C(NNC(=O)C12CC3CC(CC(C3)C1)C2)c1ccccn1,inconclusive: 34.4%
C=CCOc1ccc(C(c2c(C(=O)O)[nH]c3ccccc23)c2c(C(=O)O)[nH]c3ccccc23)cc1,inactive: 13.1%
CN(C(=O)c1ccc(Oc2ccc([N+](=O)[O-])cc2)cc1)C1CCCCC1,inconclusive: 46.5%
O=[N+]([O-])c1cccc(NN=Nc2ccccc2)c1,inactive: -8.2%

(more compounds)

Structure (SMILES)	inhibition
OCc1nc2ccccc2n1Cc1ccc(Cl)cc1	inconclusive: -32.9%
CCOc1ccc(/C=N/n2nnnc2N)cc1OCC	inconclusive: 17.1%
CC(C)(C)NC(=O)C(OC(=O)c1ccco1)c1ccc(Cl)cc1 (configuration not stated)	inconclusive: -9.1%
O=c1cc[nH]c2c(Cl)cccc12	inconclusive: -7.8%
COc1ccc(CCNc2nc(-c3ccc(O)cc3)cs2)cc1OC	inconclusive: -20%
O=C1OCc2cc(N=Nc3c(O)[nH]c(=O)[nH]c3=O)ccc21	inconclusive: 26.4%
COC(=O)c1ccc(-n2nnnc2SCC(=O)Nc2ccccc2F)cc1	inconclusive: 15.7%
CCOC(=O)c1cnc2c(C)c(Cl)ccc2c1NCCCN1CCOCC1	inconclusive: -1.4%
COc1ncnc2c1oc1nc(C(C)C)c3c(c12)CC(C)(C)OC3	inactive: 11.4%
CC1(C(=O)NS(=O)(=O)c2ccc(F)cc2F)CCN1C(=O)CCc1ccc(Cl)cc1Cl (configuration not stated)	inactive: 4.6%
O=C(Nc1ccc(F)cc1)OC1CN2CCC1CC2 (configuration not stated)	inconclusive: -160%
COc1ccc(NC(C)=O)cc1NC(=O)CSc1nnc(-c2ccc(F)cc2)n1N	inactive: -2%
O=C(c1cc2sccc2n1Cc1ccc(F)cc1)N1CCc2ccccc21	inconclusive: 11.9%
N#Cc1cccc(NC(=O)c2cc(C3CCCCN3C(=O)CCCc3ccccc3)on2)c1 (configuration not stated)	inactive: 1%
CCCCn1c(/N=C/c2cc(OC)ccc2O)nc2ccccc21	inconclusive: -27.7%
Cc1cccc(C)c1-n1c(=O)n(Cc2ccccc2)c(=O)c2[nH]cnc21	inconclusive: -6.5%
COc1ccc2cc(Br)ccc2c1CC(=O)N1CCCC1	inconclusive: -28.3%
Cc1onc(-c2c(Cl)cccc2Cl)c1/C(N)=N/OC(=O)C1CC1	inconclusive: -68.7%
COC(=O)c1cc2c(N)c(C(=O)c3ccc(Cl)cc3)sc2nc1C(OC)OC	inconclusive: -78.6%
CCOC(=O)c1cc(-c2csc(COc3ccccc3Cl)n2)on1	inconclusive: -33.5%
C[C@H](CO)N1C[C@H](C)[C@@H](CN(C)Cc2ccncc2)Oc2c(NC(=O)C3CC3)cccc2C1=O	inactive: -0.8%
CCN(CC)c1ccc(/C=C(/C#N)c2nc3ccc(C)cc3[nH]2)c(OC(C)C)c1	active: 64.2%
CCOc1ccccc1CN1CCCC(CNC(=O)Cc2ccc(OC)cc2)C1 (configuration not stated)	inconclusive: -1.4%

Copied from the list:
inhibition with CCN(CC)c1ccc(/C=C(/C#N)c2nc3ccc(C)cc3[nH]2)c(OC(C)C)c1 is entered as active: 64.2%
inhibition with OCc1nc2ccccc2n1Cc1ccc(Cl)cc1 is entered as inconclusive: -32.9%

(list continues)

Structure (SMILES)	inhibition
CC12CCC(=O)C=C1CCC1C2C(=O)CC2(C)C1CCC2(O)C(=O)CO (configuration not stated)	inconclusive: 19.2%
COCOCCn1cc(CN2CCS(=O)(=O)N(Cc3ccc(-c4ccc(OC)cc4)cc3)C(C)C2=O)nn1 (configuration not stated)	inactive: 4.9%
O=C(/C=C/c1cccc([N+](=O)[O-])c1)N1CC[C@@]2(O)CCCC[C@H]2C1	inconclusive: -10%
CCCCNCCOCCOc1ccc(C)cc1[N+](=O)[O-]	active: 45.5%
O=C(O)c1ccccc1C(=O)Nc1ccc(Oc2cccc(C(F)(F)F)c2)nc1	inconclusive: -46.4%
CCN(CC)c1cc(Cl)c2nonc2c1N	inconclusive: 29.6%
COc1ccccc1OCCNC(=O)CSC(=S)N1CCCC1	inconclusive: 1.2%
CCOc1ccc(CN(C(=O)c2cc3ccccc3oc2=O)C2CCS(=O)(=O)C2)cc1 (configuration not stated)	inconclusive: -10.2%
COc1cc(NC(=O)Cn2c([N+](=O)[O-])cnc2C)c(OC)cc1Cl	inactive: -11.3%
O=c1ccc(-c2ccccc2)nn1Cc1ccccc1	inconclusive: -0.7%
COc1cc(NC(=O)c2ccccc2)c(OC)cc1NC(=O)Cc1ccccc1	inconclusive: -37.6%
Cc1cccc(CN2CCc3c([nH]c4ccccc34)C2C(C)(C)C)n1 (configuration not stated)	inconclusive: -47.8%
Cc1ccc(S(=O)(=O)N(CC(=O)NCCC2=CCCCC2)Cc2ccccc2F)cc1	inconclusive: -15.8%
CCn1c(C)nc2cc(C(N)=O)ccc21	inconclusive: 22.6%
COc1ccc(NS(=O)(=O)c2ccc(NC(C)=O)cc2)nn1	inconclusive: 8.9%
Cc1ccc(/C=N/NC(=O)C(c2ccncc2)N2CCOCC2)cc1 (configuration not stated)	inconclusive: -28.7%
Cc1ccc(N(CCO)C(=S)Nc2ccccc2)cc1	inconclusive: -20.1%
O=C(Nc1cccs1)Nc1cccnc1Cl	inconclusive: -18%
Cc1cccc(NCc2nc(SCC(=O)Nc3ccccc3)n[nH]2)c1	inconclusive: -45.2%
CC(C)CN1C(=O)C(=O)N(CC(=O)N(C)CC(=O)Nc2ccc(F)cc2)C1=O	inactive: -4.1%
COc1ccc(/C=C2/SC(=S)NC2=O)cc1OCc1ccccc1	inactive: -4.7%
Cc1ccc2nc(SCc3ccc([N+](=O)[O-])cc3)nc(C)c2c1	inactive: 0.3%
Cc1ccc(/C=N/NC(=O)CN2CCN(Cc3ccccc3)CC2)o1	inconclusive: 49.5%

Structure (SMILES)	inhibition
CCOc1ccc(NC(=O)Cc2cccc3ccccc23)c([N+](=O)[O-])c1	inactive: -4.5%
COc1ccc(NC(=O)c2[nH]c(C)c(C(C)=O)c2C)cc1	inactive: -3.8%
Cc1ccc(/C=C2\C(=N)N3N=C(CC(=O)N4CCOCC4)SC3=NC2=O)o1	inactive: 4%
CC(=O)n1nc(-c2ccccc2)cc1-c1ccccc1	inconclusive: -8.7%
Cc1cccc(C)c1NC(=O)CN1CCc2ccccc2C1	inconclusive: 6.7%
CC(=O)C1C(c2ccc(Cl)cc2)c2c(noc2C)CC1(C)O (configuration not stated)	inconclusive: -5.9%
Cc1ccc(S(=O)(=O)Cc2ccc(C(=O)N3CCN(c4ccccn4)CC3)o2)cc1	inactive: 1.5%
CCCc1c(C(=O)O)cnn1-c1ccc(Cl)cc1	inconclusive: 152%
Cc1cc(C)nc(Nc2cccc(Cl)c2)n1	inconclusive: -30.2%
Cc1ccc(S(=O)(=O)N2CCN(c3nccnc3C#N)CC2)cc1	inconclusive: -107%
CC(=O)c1nn(-c2ccc(C(F)(F)F)cc2)c(=O)[nH]c1=O	inactive: -0.3%
COc1ccc(NC(=O)C2(C)CCN2C(=O)CC2CCCC2)cc1OC (configuration not stated)	inactive: 0.5%
CC(=O)Nc1cccc(OCCCNC(=O)c2ccc(F)cc2)c1	inconclusive: 10%
Cc1nn(-c2ccccc2)c(NC(=O)c2cccs2)c(-c2ccccc2Cl)c1=O	inactive: -1.5%
CCCCN(C(=O)C1CCC1)c1c(N)n(Cc2ccccc2)c(=O)[nH]c1=O	inconclusive: -2.7%
CN(Cc1ccccc1F)C(=O)c1ccc(NS(=O)(=O)c2ccc3[nH]c(=O)[nH]c3c2)cc1	inconclusive: -14.4%
CC(=NNc1nc2ccccc2s1)c1ccncn1	inactive: -9%
COc1ccc(S(=O)(=O)NCc2ccccn2)cc1Br	inconclusive: -10.6%
Cc1ccc(F)cc1N=Cc1c(O)c2ccccc2oc1=O	inconclusive: 2.1%
Cc1cccc(Nc2cc(C)nc3ccccc23)c1	inconclusive: 16.1%
Cc1nnsc1-c1c(C(=O)N2CCOCC2)c(C)nn1-c1ccc(Cl)cc1	inconclusive: -109%
CC1(C)CC(=O)C2=C(C1)N(CCN1CCOCC1)C1=C(C(=O)CC(C)(C)C1)C2c1ccc(Cl)cc1	inactive: 4.6%
COc1ccc(C(=O)N/N=C\C(C)=C\c2ccccc2)cc1OC	inconclusive: -32.9%
